{
  "source": "patent US10400010B2",
  "about": "“Structure-based peptide inhibitors of P53 aggregation as a new approach to cancer therapeutics” (THE REGENTS OF THE UNIVERSITY OF CALIFORNIA, priority 2013, dated 2019)",
  "key": {"[1]": {"system": "cancer cell lines (OVCAR-3, CAOV-3, WiDr, Detroit 562) and primary cells from ovarian cancer patients", "test": "Cell entry and co-localization of FITC labeled inhibitor by fluorescence microscopy", "type": "cell-based, human", "from_the_text": "INH-1R CPP was covalently linked to a FITC fluorescent label and added to different cancer cell lines or primary cells directly obtained from ovarian cancer patients (as depicted here). […] The cell nuclei are stained with Hoechst 33342 (blue), while p53 is recognized by an anti-p53 antibody and stained in red. […] Protein aggregates are stained with the commercially available OC antibody (in red).\nTo render the inhibitors cell permeable, the inventors fused the peptide-inhibitor panel to a nine-residue poly arginine tag through a three-residue linker, of sequence RPI, derived from endogenous p53 sequence. To confirm their ability to enter cells, the cell penetrating INH-1R inhibitor was linked to a FITC moiety in order to detect the intracellular localization of the probe by fluorescence microscopy (FIG. 4). We treated different cancer cell lines, including but not limited to OVCAR-3, CAOV-3, WiDr, Detroit 562 as well as primary cells derived from cancer patients with the FITC labeled inhibitor for 24 hours. After extensive washes to remove unbound inhibitors, the cells were fixed in formaldehyde and p53 was stained using a commercially available p53 antibody. […] Additionally, the inhibitor was found co-localized with protein aggregates as stained by the conformation specific antibody OC (Kayed et al, 2007, FIG. 4B)."}, "[2]": {"system": "primary cells from a serous ovarian carcinoma patient", "test": "p53 re-localization / break-up of aggregates (p53 immunostain)", "type": "cell-based, human", "settings": "10 μM, 24 hours"}, "[3]": {"system": "stable cell line derived from an ovarian cancer tumor (PA40 cells)", "test": "p53 re-localization and refolding, DO-1 and PAb240 antibody stain", "type": "cell-based", "from_the_text": "A stable cell line derived from an ovarian cancer tumor is stained with the commercially available DO-1 antibody which recognizes any p53, irrespective of its structural state. […] The PAb240 commercial antibody recognizes misfolded p53, therefore loss of PAb240 antigeneicity reflects a change in the p53 population from misfolded to properly folded, functionally capable protein.\n(§1) Properly folded p53 is rapidly degraded in cells as a control mechanism. Misfolded/aggregated p53 cannot be efficiently targeted for degradation therefore protein levels are high in the absence of the inhibitor. This is additional evidence of the ability of the INH-1R to generate a population of folded p53."}, "OVCAR-3 cell lysates": {"system": "OVCAR-3 cell lysates", "test": "p53 levels in cell lysates by Western Blot", "type": "cell-based", "settings": "0, 1, 5 or 10 μM, 24 hours", "from_the_text": "The properly folded p53 (see FIG. 6) can now be degraded as is WT p53. The hyperstability due to misfolding/aggregation is lost, and the protein turnover is fast.\nas §1"}, "[4]": {"system": "primary cells from ovarian cancer", "test": "Apoptosis (AnnexinV stain) and proliferation (Ki67 stain)", "type": "cell-based", "settings": "increasing dosage", "from_the_text": "B. and C. show one representative case of primary cells from ovarian cancer."}, "OVCAR-3 cells [5]": {"system": "OVCAR-3 cells", "test": "Apoptosis and necrosis, combined Hoechst/PI/YO-PRO-1 stain", "type": "cell-based", "settings": "24 hours", "description": "OVCAR-3 cells were treated for 24 hours with the indicated concentrations of either INH-1R CPP or a scrambled inhibitor sequence. Hoechst (blue) stains all nuclei while YO-PRO-1 (green) only stains apoptotic cells and propidium iodide (red) stains late apoptotic/necrotic cells."}, "OVCAR-3 cells [6]": {"system": "OVCAR-3 cells", "test": "Cell death by FACS (cell size and granularity)", "type": "cell-based", "settings": "10 μM, 24 hours", "description": "Cells treated for 24 hours with either INH-1R or a control peptide were trypsinized and analyzed by FACS."}, "[7]": {"system": "p53 target genes p21 and Mdm2", "test": "Up-regulation of p53 target genes by QPCR or RNAseq", "type": "cell-based", "settings": "tumor cells with p53 misfolding/aggregating mutations", "from_the_text": "Specificity and efficacy of INH-1R CPP was confirmed by up-regulation of p53 target genes only in tumor cells containing p53 misfolding/aggregating mutations."}, "[8]": {"system": "OVCAR-3 cells bearing the aggregation prone p53 R248Q mutation (xenograft)", "test": "OVCAR-3 xenograft tumor proliferation in vivo", "parameters": "species or system NOD/SCID mice", "description": "A. Images of the xenografts from mice (n=3 for each group, one mouse had 2 xenografts) treated with INH-1R CPP, a scrambled peptide control, or vehicle for 14 days. […] C. Tumor volume was estimated daily.\nIn our in vivo studies, we attempted to mimic a post-surgical debulking situation in which patients with minimal residual tumor mass are administered chemotherapy. NOD/SCID mice were injected subcutaneously with OVCAR-3 cells bearing the aggregation prone p53 R248Q mutation and treated intraperitoneally with 15 mg/kg of either INH-1R as a single therapeutic agent, a control scrambled peptide, or vehicle daily for 14 days (FIG. 9)."}},
  "note": "Not every detail of the peptide structures is certain; ends, links or a residue may be inferred.",
  "data": [
    {"smiles": "CC[C@H](C)[C@H](NC(=O)[C@H](CCCNC(=N)N)NC(=O)[C@@H](NC(=O)[C@H](CC(C)C)NC(=O)[C@@H](NC(=O)[C@@H]1CCCN1C(=O)[C@H](CCCNC(=N)N)NC(=O)[C@H](CCCNC(=N)N)NC(=O)[C@H](CCCNC(=N)N)NC(=O)[C@H](CCCNC(=N)N)NC(=O)[C@H](CCCNC(=N)N)NC(=O)[C@H](CCCNC(=N)N)NC(=O)[C@H](CCCNC(=N)N)NC(=O)[C@H](CCCNC(=N)N)NC(=O)[C@H](CCCNC(=N)N)NC(=O)[C@@H](N)CCCNC(=N)N)[C@@H](C)CC)[C@@H](C)O)C(=O)N[C@H](C(=O)N[C@@H](CC(C)C)C(=O)N[C@@H](CCC(=O)O)C(=O)O)[C@@H](C)O", "note": "[INH-1R CPP, RRRRRRRRRRPILTRITLE]", "values": [
      {"measurement": "Ability to enter cells (intracellular localization)", "setting": "[1]; 24 hours", "value": "successfully penetrated into the cytosol and nucleus of the cells"},
      {"measurement": "Co-localization with protein aggregates (OC antibody)", "setting": "[1]; primary ovarian cancer cells", "value": "co-localizes with protein aggregates"},
      {"measurement": "Re-localization of p53 / disappearance of cytosolic puncta", "setting": "[2]", "value": "all the puncta disappeared and p53 is now diffused and localized to the nucleus"},
      {"measurement": "Re-localization of p53 to the nucleus (DO-1 stain)", "setting": "[3]", "value": "causes p53 to re-localize to the nucleus"},
      {"measurement": "Recognition of p53 by PAb240 (misfolded p53)", "setting": "[3]", "value": "the antibody PAb240 does not bind to p53 in these cells"},
      {"measurement": "Total amount of p53", "setting": "OVCAR-3 cell lysates", "value": "decreases upon 1NH-1R CPP treatment in a concentration dependent manner"},
      {"measurement": "Apoptosis (AnnexinV stain)", "setting": "[4]", "value": "Increased apoptosis"},
      {"measurement": "Cell proliferation (Ki67 stain)", "setting": "[4]", "value": "decreased proliferation"},
      {"measurement": "Apoptosis and necrosis (Hoechst/PI/YO-PRO-1 stain)", "setting": "OVCAR-3 cells [5]", "value": "contain mostly dead cells"},
      {"measurement": "Cell size and granularity (FACS)", "setting": "OVCAR-3 cells [6]", "value": "reduction of cell size and an increase in granularity"},
      {"measurement": "Up-regulation of p53 target genes", "setting": "[7]", "value": "induces up-regulation of p53 target genes p21 and Mdm2"},
      {"measurement": "p53 target genes MDM2 and p21 in residual tumor tissue", "setting": "[8]; 15 mg/kg IP daily for 14 days", "value": "up-regulation of the p53 target genes MDM2 and p21"},
      {"measurement": "Tumor size compared to controls as evaluated by weight", "setting": "[8]; treated for 14 days", "value": "six times smaller"}
    ]}
  ]
}
